Measured values from PMC12378234, “Enzyme-mediated aminoglycoside resistance without target mimicry” (Communications Chemistry, 2025).
Where “and” joins values, the source holds several entries; their conditions need not be identical. Identical values can stand only once. Like-named read-outs stand apart in the source and are kept apart here. Further values from the same series stand in other lists.

System: BL21(DE3) E. coli transformed with pUCP18 vector expressing untagged AAC(3)-XIa
Assay type: cell-based
Protocol: Ten milliliters of LB containing […] ampicillin were inoculated from glycerol stocks of transformed BL21(DE3) E. coli containing genes expressing the proteins of interest in pUCP18 vectors. These cultures were incubated at 37 °C with 200 rpm agitation for 16 h. Turbidity was measured through OD600 with a NanoDrop OneC Spectrometer (Thermo Scientific). From the initial cultures, secondary 10 mL cultures were prepared with OD600 values of 0.1. These cultures were grown until OD600 values of 0.4–0.6 were reached and diluted to bring all cultures to the same OD600. Cultures were induced with 1 mM Isopropyl β-D-1-thiogalactopyranoside and incubated for 4 h. Two microliters of culture was added to 198 μL of LB with an appropriate aminoglycoside titration concentration. Each titration point was repeated n = 4 times. The formulated 96-well culture plate (Sarstedt) had OD600 measured on a 20-min interval over 17 h using a BioTek Cytation 5 Cell Imaging Multimode Reader, incubating at 37 °C with 282 cpm orbital agitation. Experiments were repeated with fresh cultures on separate days to ensure consistent trends. Data was analyzed in Microsoft Excel and GraphPad5. The remainder of the culture immediately had its RNA isolated for qPCR experiments.

For `CN[C@@H]1[C@@H](O)[C@@H](O[C@@H]2[C@@H](O)[C@H](O[C@H]3OC(CN)=CC[C@H]3N)[C@@H](N)C[C@H]2N)OC[C@]1(C)O` [Sisomicin, sisomicin], the OD600 growth curve (3 ug/mL Sisomicin, time point 09:19:10) was 0.649 and 0.567 and 0.553 and 0.7, the OD600 growth curve (3 ug/mL Sisomicin, time point 09:39:10) was 0.663 and 0.576 and 0.569 and 0.713 and the OD600 growth curve (3 ug/mL Sisomicin, time point 09:59:10) was 0.673 and 0.58 and 0.572 and 0.722. For the same compound, the OD600 growth curve (3 ug/mL Sisomicin, time point 10:19:10) was 0.681 and 0.584 and 0.574 and 0.73, the OD600 growth curve (3 ug/mL Sisomicin, time point 10:39:10) was 0.688 and 0.59 and 0.577 and 0.737 and the OD600 growth curve (3 ug/mL Sisomicin, time point 10:59:10) was 0.695 and 0.594 and 0.579 and 0.743. For the same compound, the OD600 growth curve (3 ug/mL Sisomicin, time point 11:19:10) was 0.704 and 0.599 and 0.583 and 0.753, the OD600 growth curve (3 ug/mL Sisomicin, time point 11:39:10) was 0.711 and 0.601 and 0.586 and 0.758 and the OD600 growth curve (3 ug/mL Sisomicin, time point 11:59:10) was 0.718 and 0.602 and 0.586 and 0.765. The OD600 growth curve (3 ug/mL Sisomicin, time point 12:19:10) was 0.726 and 0.607 and 0.591 and 0.773, the OD600 growth curve (3 ug/mL Sisomicin, time point 15:19:10) was 0.739 and 0.631 and 0.623 and 0.789 and the OD600 growth curve (3 ug/mL Sisomicin, time point 15:39:10) was 0.731 and 0.629 and 0.62 and 0.782. For the same compound, the OD600 growth curve (3 ug/mL Sisomicin, time point 15:59:10) was 0.728 and 0.621 and 0.619 and 0.782, the OD600 growth curve (3 ug/mL Sisomicin, time point 16:19:10) was 0.717 and 0.616 and 0.619 and 0.767 and the OD600 growth curve (3 ug/mL Sisomicin, time point 16:39:10) was 0.704 and 0.61 and 0.614 and 0.754. The OD600 growth curve (3 ug/mL Sisomicin, time point 16:59:10) was 0.696 and 0.605 and 0.609 and 0.743, the OD600 growth curve (3 ug/mL Sisomicin, time point 17:19:10) was 0.688 and 0.602 and 0.607 and 0.733 and the OD600 growth curve (6 ug/mL Sisomicin, time point 09:19:10) was 0.525 and 0.527 and 0.709 and 0.785. For the same compound, the OD600 growth curve (6 ug/mL Sisomicin, time point 09:39:10) was 0.535 and 0.539 and 0.71 and 0.802, the OD600 growth curve (6 ug/mL Sisomicin, time point 09:59:10) was 0.549 and 0.548 and 0.717 and 0.812 and the OD600 growth curve (6 ug/mL Sisomicin, time point 10:19:10) was 0.557 and 0.555 and 0.722 and 0.825. The OD600 growth curve (6 ug/mL Sisomicin, time point 10:39:10) was 0.567 and 0.564 and 0.727 and 0.833, the OD600 growth curve (6 ug/mL Sisomicin, time point 10:59:10) was 0.578 and 0.57 and 0.732 and 0.845 and the OD600 growth curve (6 ug/mL Sisomicin, time point 11:19:10) was 0.587 and 0.577 and 0.735 and 0.85. For the same compound, the OD600 growth curve (6 ug/mL Sisomicin, time point 11:39:10) was 0.597 and 0.584 and 0.741 and 0.854, the OD600 growth curve (6 ug/mL Sisomicin, time point 11:59:10) was 0.606 and 0.591 and 0.742 and 0.852 and the OD600 growth curve (6 ug/mL Sisomicin, time point 12:19:10) was 0.613 and 0.596 and 0.746 and 0.851. The OD600 growth curve (6 ug/mL Sisomicin, time point 15:39:10) was 0.674 and 0.64 and 0.763 and 0.75, the OD600 growth curve (6 ug/mL Sisomicin, time point 15:59:10) was 0.672 and 0.635 and 0.76 and 0.741 and the OD600 growth curve (6 ug/mL Sisomicin, time point 16:19:10) was 0.676 and 0.639 and 0.765 and 0.733. For the same compound, the OD600 growth curve (6 ug/mL Sisomicin, time point 16:39:10) was 0.677 and 0.641 and 0.765 and 0.725, the OD600 growth curve (6 ug/mL Sisomicin, time point 16:59:10) was 0.676 and 0.638 and 0.764 and 0.717 and the OD600 growth curve (6 ug/mL Sisomicin, time point 17:19:10) was 0.676 and 0.638 and 0.763 and 0.71. The OD600 growth curve (12 ug/mL Sisomicin, time point 09:19:10) was 0.093 and 0.105 and 0.112 and 0.109, the OD600 growth curve (12 ug/mL Sisomicin, time point 09:39:10) was 0.093 and 0.104 and 0.112 and 0.108 and the OD600 growth curve (12 ug/mL Sisomicin, time point 09:59:10) was 0.093 and 0.104 and 0.112 and 0.108. The OD600 growth curve (12 ug/mL Sisomicin, time point 10:19:10) was 0.093 and 0.103 and 0.111 and 0.108, the OD600 growth curve (12 ug/mL Sisomicin, time point 10:39:10) was 0.093 and 0.103 and 0.111 and 0.108 and the OD600 growth curve (12 ug/mL Sisomicin, time point 10:59:10) was 0.093 and 0.102 and 0.111 and 0.107. For the same compound, the OD600 growth curve (12 ug/mL Sisomicin, time point 11:19:10) was 0.093 and 0.102 and 0.11 and 0.106, the OD600 growth curve (12 ug/mL Sisomicin, time point 11:39:10) was 0.093 and 0.102 and 0.11 and 0.106 and the OD600 growth curve (12 ug/mL Sisomicin, time point 11:59:10) was 0.093 and 0.101 and 0.11 and 0.107. For the same compound, the OD600 growth curve (12 ug/mL Sisomicin, time point 12:19:10) was 0.093 and 0.101 and 0.109 and 0.106, the OD600 growth curve (12 ug/mL Sisomicin, time point 15:19:10) was 0.1 and 0.107 and 0.103 and the OD600 growth curve (12 ug/mL Sisomicin, time point 15:39:10) was 0.093 and 0.1 and 0.107 and 0.102. The OD600 growth curve (12 ug/mL Sisomicin, time point 15:59:10) was 0.093 and 0.1 and 0.107 and 0.102, the OD600 growth curve (12 ug/mL Sisomicin, time point 16:19:10) was 0.093 and 0.1 and 0.107 and 0.102 and the OD600 growth curve (12 ug/mL Sisomicin, time point 16:39:10) was 0.093 and 0.1 and 0.106 and 0.102. For the same compound, the OD600 growth curve (12 ug/mL Sisomicin, time point 16:59:10) was 0.093 and 0.1 and 0.106 and 0.102 and the OD600 growth curve (12 ug/mL Sisomicin, time point 17:19:10) was 0.093 and 0.1 and 0.106 and 0.102.
